# The other results are listed elsewhere or left out.
# B1: SLLPI (Homo sapiens), Q8IXA5 (protein)
# chain: MVSALRGAPLIRVHSSPVSSPSVSGPRRLVSCLSSQSSALSQSGGGSTSAAGIEARSRALRRRWCPAGIMLLALVCLLSCLLPSSEAKLYGRCELARVLHDFGLDGYRGYSLADWVCLAYFTSGFNAAALDYEADGSTNNGIFQINSRRWCSNLTPNVPNVCRMYCSDLLNPNLKDTVICAMKITQEPQGLGYWEAWRHHCQGKDLTEWVDGCDF
# Target: Neu5Gc(b2-6)Gal(b1-4)GlcNAc
# Assay: glycan array binding signal (z-score within array); higher = stronger binding
# Settings: glycan notation: IUPAC condensed, linker removed
# In short: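 Glycan array data were curated from 3228 arrays in the Consortium for Functional Glycomics database and kept only where the protein sequence was available. Glycan names were converted to IUPAC-condensed notation, and columns mapping to the same glycan were averaged. The binding signal is a within-array Z-score, averaged across arrays of the same protein sequence at different concentrations or buffers and across linkers. Negative Z-scores can be read as non-binding.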
binder,measurement,value
B1,glycan array binding signal (z-score),-0.447

# Reference: the supplement of paper PMC8728848
